Experimental data as given in PMC10602610.
Results are given in words; binding and its absence hold for the method and conditions named. For part of these data: Binding seen in cells or lysates may run through a third protein. Some results given as binding are weak or reduced against the parent protein; the word gives no strength. Tags and fused reporters may be left off the sequences shown.

T1: VITAMIN C …2 (VTC2), bait fusion VTC2-BD (Arabidopsis thaliana) (UniProt Q8RWE8)
T1 sequence: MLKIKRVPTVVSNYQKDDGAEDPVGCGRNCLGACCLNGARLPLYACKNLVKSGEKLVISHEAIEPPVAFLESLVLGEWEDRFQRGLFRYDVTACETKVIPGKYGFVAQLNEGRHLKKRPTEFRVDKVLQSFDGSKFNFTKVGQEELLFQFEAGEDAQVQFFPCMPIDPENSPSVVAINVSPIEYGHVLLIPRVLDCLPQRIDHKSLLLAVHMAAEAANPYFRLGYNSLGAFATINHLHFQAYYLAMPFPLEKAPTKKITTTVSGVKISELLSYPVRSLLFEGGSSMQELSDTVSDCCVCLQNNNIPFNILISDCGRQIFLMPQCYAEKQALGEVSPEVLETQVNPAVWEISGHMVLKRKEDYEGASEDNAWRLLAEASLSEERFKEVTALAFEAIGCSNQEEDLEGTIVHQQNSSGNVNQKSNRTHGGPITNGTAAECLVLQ

T2: VITAMIN C …2 (VTC2), BiFC fusion (Arabidopsis thaliana) (UniProt Q8RWE8)
T2 sequence: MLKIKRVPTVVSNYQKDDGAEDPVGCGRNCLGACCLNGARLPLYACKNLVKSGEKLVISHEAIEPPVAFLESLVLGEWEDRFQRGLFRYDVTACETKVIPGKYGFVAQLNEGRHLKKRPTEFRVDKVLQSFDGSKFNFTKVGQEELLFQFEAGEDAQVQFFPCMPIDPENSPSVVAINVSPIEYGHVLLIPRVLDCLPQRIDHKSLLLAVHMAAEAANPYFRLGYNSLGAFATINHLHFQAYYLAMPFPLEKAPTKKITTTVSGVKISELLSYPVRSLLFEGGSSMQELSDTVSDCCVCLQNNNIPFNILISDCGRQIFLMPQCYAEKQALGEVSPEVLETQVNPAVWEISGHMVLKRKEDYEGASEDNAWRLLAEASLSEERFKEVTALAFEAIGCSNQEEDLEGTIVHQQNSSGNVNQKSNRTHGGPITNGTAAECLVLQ


Experiments:
[1] = molecular target: T1, VITAMIN C …2 (VTC2), bait fusion VTC2-BD (Arabidopsis thaliana); assay: two-hybrid; targeted Y2H in S. cerevisiae Y2HGold; VTC2-BD as bait, PLPB-AD as prey; growth on SD-Trp-Leu-His-Ade with Aureobasidin A (0.2 µg/mL) and X-α-Gal, 30°C, 5 d
[2] = molecular target: T2, VITAMIN C …2 (VTC2), BiFC fusion (Arabidopsis thaliana); assay: split reporter; 2in1 BiFC (pBiFCt-2in1-NC) in agroinfiltrated N. benthamiana leaves, YFP signal by confocal microscopy, 35S::RFP as control of transformation; leaves under normal growth conditions, or exposed to dark or high blue light (300 µmol m^-2 s^-1), YFP/RFP ratio in nuclei stronger in the dark

| binding [1] | binding [2] | Binder |
| --- | --- | --- |
| binds |  | PAS/LOV PROTEIN B (PLPB), prey fusion PLPB-AD (protein, UniProt O64511-1 1-399) MSLTKSSESVFTEEEEEDSFSGRYTLWIKEALEELPHNFTITDPFISGHPIVFASLGFLKMTGYSREEVIGRNGKVFQGPKTNRRSIMEIREAIREERSVQVSLLNYRKSGSPFWMLFHMCPVFGKDDGKVTNFVAVQVPISGREHHRKKLRNVGDLSSDTSPTFGSCRREVCFGNFVCQDRALPVECDDDEQGLEDWEQCEASESEKLKATEAINNVLSILVHYSELSGRLVCGKRYCLRGVDCLSSSLVISLGRIKQSFVLTNPCLPDMPIIYASDAFLTLTGYKRQEVLGQNCRFLSGVDTDSSVLYEMKECILKGQSCTVQILNYSNRKDKSSFWNLLHISPVRNASGKTAYFVGVQVEASCRNTEIKELRPETRQLSVVGAVRVAVRSSLMVTC |
|  | binds | PAS/LOV PROTEIN B (PLPB), BiFC fusion (protein, UniProt O64511-1 1-399) MSLTKSSESVFTEEEEEDSFSGRYTLWIKEALEELPHNFTITDPFISGHPIVFASLGFLKMTGYSREEVIGRNGKVFQGPKTNRRSIMEIREAIREERSVQVSLLNYRKSGSPFWMLFHMCPVFGKDDGKVTNFVAVQVPISGREHHRKKLRNVGDLSSDTSPTFGSCRREVCFGNFVCQDRALPVECDDDEQGLEDWEQCEASESEKLKATEAINNVLSILVHYSELSGRLVCGKRYCLRGVDCLSSSLVISLGRIKQSFVLTNPCLPDMPIIYASDAFLTLTGYKRQEVLGQNCRFLSGVDTDSSVLYEMKECILKGQSCTVQILNYSNRKDKSSFWNLLHISPVRNASGKTAYFVGVQVEASCRNTEIKELRPETRQLSVVGAVRVAVRSSLMVTC |
|  | binds | PAS/LOV PROTEIN A (PLPA), BiFC fusion (protein, UniProt O64511-2 1-397) MSLTKSSESVFTEEEEEDSFSGRYTLWIKEALEELPHNFTITDPFISGHPIVFASLGFLKMTGYSREEVIGRNGKVFQGPKTNRRSIMEIREAIREERSVQVSLLNYRKSGSPFWMLFHMCPVFGKDDGKVTNFVAVQVPISGREHHRKKLRNVGDLSSDTSPTFGSCRREVCFGNFVCQDRALPVECDDDEQGLEDWEQCEASESEKLKATEAINNVLSILVHYSELSGRLVCGKRYCLRGVDCLSSSLVISLGRIKQSFVLTNPCLPDMPIIYASDAFLTLTGYKRQEVLGQNCRFLSGVDTDSSVLYEMKECILKGQSCTVQILNYRKDKSSFWNLLHISPVRNASGKTAYFVGVQVEASCRNTEIKELRPETRQLSVVGAVRVAVRSSLMVTC |
